Results on 1 compound are retold here after paper PMC3716696 (PLoS ONE, 2013).

Entries after “also recorded” stand apart in the source; their conditions may differ.

The test system of the data set is NEP. Briefly: SP degradation and SP levels in WT and Nep–/– spinal cord. Format: in vitro ADME, mouse. The conditions noted are these: IDMS, N = 4. How it is done: The levels of SP in WT and Nep^–/– mice spinal cord tissue (N = 4) were compared by IDMS using Top 6 MS/MS as described previously. The degradation of SP was compared in 1 mg/mL WT and Nep^–/– mice spinal cord membrane lysates using LC-MS/MS analysis following the above method.

Regarding `CSCC[C@H](NC(=O)[C@H](CC(C)C)NC(=O)CNC(=O)[C@H](Cc1ccccc1)NC(=O)[C@H](Cc1ccccc1)NC(=O)[C@H](CCC(N)=O)NC(=O)[C@H](CCC(N)=O)NC(=O)[C@@H]1CCCN1C(=O)[C@H](CCCCN)NC(=O)[C@@H]1CCCN1C(=O)[C@@H](N)CCCNC(=N)N)C(N)=O` [SP, Substance P], the “Endogenous SP levels in spinal cords of NEP+/+ vs NEP–/– mice” value is “same spinal cord concentrations; also recorded: no difference”.
